# Data: article PMC7819943, “Rice protein-binding microarrays: a tool to detect cis-acting elements near promoter regions in rice”
# By UniProt entry, the sequences of proteins in these tests, tags left out.
# UniProt Q0JBA9, entry or part of it: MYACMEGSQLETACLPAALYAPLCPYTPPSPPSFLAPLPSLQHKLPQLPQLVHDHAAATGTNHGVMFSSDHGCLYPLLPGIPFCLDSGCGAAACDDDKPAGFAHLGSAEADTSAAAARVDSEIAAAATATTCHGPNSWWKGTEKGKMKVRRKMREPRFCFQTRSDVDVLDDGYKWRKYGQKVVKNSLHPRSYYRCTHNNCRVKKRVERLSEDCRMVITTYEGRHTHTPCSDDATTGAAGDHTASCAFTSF
# The other results are listed elsewhere or left out.
# Target: OsWRKY34 (Oryza sativa, UniProt Q0JBA9 1-250)
# Experiment: protein-binding microarray (RPBM); PBS, 2% BSA, 51.3 ng/ul salmon testes DNA, 50 uM zinc acetate, 200 nM TF, 25 C, 1 h; high values mean tight binding
# Conditions: protein: recombinant; tags: N-terminal polyhistidine and DsRed monomer fusion (pET32a); label: CyDye5-dUTP incorporated in the synthesized complementary strand; 3' TTTTT single-stranded linker to array surface; dsDNA, one strand shown
# In short: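 An Axon 4000B scanner gave the binding signal as per-feature fluorescence intensity in arbitrary units. This followed washing of a custom Agilent array that had been incubated for 1 h at 25 °C with 200 nM protein in PBS, 2% BSA, salmon testes DNA and 50 µM zinc acetate. The proteins were transcription factors fused at the N-terminus to polyhistidine and DsRed, expressed in E. coli BL21-CodonPlus and purified on Ni–NTA.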
row,Sequence,binding signal
1,TTGGCTTTCCTTTCTTCCGATCCAAGCTACTCTCTCTCTCCGGAGTCACCTAGTGCAG,8220 fluorescence intensity (a.u.)
2,GTTTGTATGTGATTTTGTAATGCTGAATATATGCTCTTTCCGGAGTCACCTAGTGCAG,11000 fluorescence intensity (a.u.)
3,GTCACAGGTGCTTATTTGTGCTACCATTTAGTCCATTGTACGGAGTCACCTAGTGCAG,10800 fluorescence intensity (a.u.)
4,TTTATGCCTGTTCTGTTTATTTGTTCTTAAGTGCTTTGCCCGGAGTCACCTAGTGCAG,10500 fluorescence intensity (a.u.)
5,GGCTGTGTTTATTGGCTGTGTTTAGTTCCCTTCAAACTTCCGGAGTCACCTAGTGCAG,9610 fluorescence intensity (a.u.)
6,GTTCTCTCATGCATTGCCTCGTTTTTCTCTATAGACTATCCGGAGTCACCTAGTGCAG,9480 fluorescence intensity (a.u.)
7,TTTTACCTCTCTCACCATTAACTCTTGCTACATTAGACTTCGGAGTCACCTAGTGCAG,9670 fluorescence intensity (a.u.)
8,TCGGTCGGGTCGGGTCGGGTCGCGTCGCGTGGGCTGCATGCGGAGTCACCTAGTGCAG,12200 fluorescence intensity (a.u.)
9,AACCCGTCTGTCCATCCTTTCATGACAATAGTATTTTATTCGGAGTCACCTAGTGCAG,9770 fluorescence intensity (a.u.)
10,GGTGTGGACCCTTTTCCGTCCCAATTTACACTTCCGTACCCGGAGTCACCTAGTGCAG,8550 fluorescence intensity (a.u.)
11,AATTTCCTCACATCGACCGTTGACTCATCCACTTCACTGCCGGAGTCACCTAGTGCAG,16200 fluorescence intensity (a.u.)
12,AGGATTTTATTATTTTTCCGGCTCGAATTGCCACGTAAGCCGGAGTCACCTAGTGCAG,8080 fluorescence intensity (a.u.)
13,TATAAAGTGGTCCACCTCTCCCCATCCACTCGTCCCTTTCCGGAGTCACCTAGTGCAG,9000 fluorescence intensity (a.u.)
14,TAAACTCCATATTATATAACATCCCCAACTATGCTGTTTTCGGAGTCACCTAGTGCAG,8150 fluorescence intensity (a.u.)
15,ACCTCTGTTTTCATGGGCTAGTGGCCCAGTACCTCACTGCCGGAGTCACCTAGTGCAG,8930 fluorescence intensity (a.u.)
16,AACTCTCTCCGCTCGCACGCCGTTCCATATATAAGACCACCGGAGTCACCTAGTGCAG,9840 fluorescence intensity (a.u.)
17,CGCAATCCGCCGCTTGCCTTCGCCGCCGCCCGCGCTGAATCGGAGTCACCTAGTGCAG,9490 fluorescence intensity (a.u.)
18,GCCCCTCACCTCACCTCACCTCTCCATCCACGATAATATCCGGAGTCACCTAGTGCAG,8210 fluorescence intensity (a.u.)
19,CCATCTATATATTAAAGCTGCGTCCGCCACTGCTTTCTTCCGGAGTCACCTAGTGCAG,11000 fluorescence intensity (a.u.)
20,GAATTAGACCATTTAACTCGTCGCCACCACCACCAGTAAACGGAGTCACCTAGTGCAG,11500 fluorescence intensity (a.u.)
21,GACGACACGAGCACTCCCAGCCGCGAACACCGCAAAATCACGGAGTCACCTAGTGCAG,10200 fluorescence intensity (a.u.)

row,Sequence,binding signal
1,GCTCGCGTAATCACGTGTCCGCCTGGTGTATGTCCCTCTCCGGAGTCACCTAGTGCAG,9200 fluorescence intensity (a.u.)
2,TTCTCTCTCTATCTCTCATTTATATATTTAATATATTTGTCGGAGTCACCTAGTGCAG,9250 fluorescence intensity (a.u.)
3,GAGCATTATTGTATTTCTAGACCATGTAGGCTATGACACACGGAGTCACCTAGTGCAG,8470 fluorescence intensity (a.u.)
4,TATGGTGAGTCTCTTCTCGTGTTCCTTTTGACTTGTAGATCGGAGTCACCTAGTGCAG,10600 fluorescence intensity (a.u.)
5,TACTTATCCGATTTATGATCCGATTATGTCGTTGTTATTACGGAGTCACCTAGTGCAG,8540 fluorescence intensity (a.u.)
6,GAATAAATATCTCTATTCCTGCGTCATCCCCATCTCTCGCCGGAGTCACCTAGTGCAG,8770 fluorescence intensity (a.u.)
7,AATCTACACTAATTCTTCTGGTCTACACATTAAGTTATGACGGAGTCACCTAGTGCAG,8670 fluorescence intensity (a.u.)
8,AGCTCGCCCGCACCGCTATGCTCCGTCCGCCACCCTTGCTCGGAGTCACCTAGTGCAG,8280 fluorescence intensity (a.u.)
9,ATCATACTGTTGTTTGCTACTCCCACATATATATAACTATCGGAGTCACCTAGTGCAG,8280 fluorescence intensity (a.u.)
10,TACACGCACCGTCCCCTTCCTGGGCTCCTCTTCGTCTTGCCGGAGTCACCTAGTGCAG,9520 fluorescence intensity (a.u.)
11,TTCTTTGTTACGCTGTAGAAGTGGATGTTTCTGTTGTAACCGGAGTCACCTAGTGCAG,10200 fluorescence intensity (a.u.)
12,ACTCCTGTAATAATTTTAGCATTCCTATCTTGGCAACACTCGGAGTCACCTAGTGCAG,9410 fluorescence intensity (a.u.)
13,GTGTTTATATGGGTGAGTCTGTGTTTGTATTGTATTTCTCCGGAGTCACCTAGTGCAG,12600 fluorescence intensity (a.u.)
14,ATGGTCACACATCCAATGGCTTGCGCCCAACCTTGCCGCACGGAGTCACCTAGTGCAG,8800 fluorescence intensity (a.u.)
15,GCCACGCCGTGGACACGACTCCTGATTCACTATCGAGCTCCGGAGTCACCTAGTGCAG,8910 fluorescence intensity (a.u.)
16,ATCTTGCTACTTCCTCCGTTTCACAATGTAAGTCATTCTACGGAGTCACCTAGTGCAG,9930 fluorescence intensity (a.u.)
17,ATAATCTTCATGTTTCTTTCAAACCTTCTGTACTTAGATGCGGAGTCACCTAGTGCAG,9200 fluorescence intensity (a.u.)
18,ATTGCCCACTTCGCCGCCCGTTTCGGTTTCCCTTTCTTCACGGAGTCACCTAGTGCAG,10000 fluorescence intensity (a.u.)
19,GGCTTCCGCCCTTGCACACTCTTCGGTGGGGTGGTGACGCCGGAGTCACCTAGTGCAG,9870 fluorescence intensity (a.u.)
20,TCCGGACGCTCGGGTAGGTGAGGGAGGGAGGGAGGAGATGCGGAGTCACCTAGTGCAG,9000 fluorescence intensity (a.u.)
21,GTTTCCTCCGATTTTTCTCTTCGGCCTGACCGCCTGAGGTCGGAGTCACCTAGTGCAG,9340 fluorescence intensity (a.u.)

# Nothing new here: entries from further up.
row,Sequence,binding signal
13,GTGTTTATATGGGTGAGTCTGTGTTTGTATTGTATTTCTCCGGAGTCACCTAGTGCAG,12600 fluorescence intensity (a.u.)
14,ATGGTCACACATCCAATGGCTTGCGCCCAACCTTGCCGCACGGAGTCACCTAGTGCAG,8800 fluorescence intensity (a.u.)
